Data on 1 substance can be found in paper PMC11124914.

Sequences of proteins named here, by UniProt entry; tags and fusion partners are left off.
UniProt P63279: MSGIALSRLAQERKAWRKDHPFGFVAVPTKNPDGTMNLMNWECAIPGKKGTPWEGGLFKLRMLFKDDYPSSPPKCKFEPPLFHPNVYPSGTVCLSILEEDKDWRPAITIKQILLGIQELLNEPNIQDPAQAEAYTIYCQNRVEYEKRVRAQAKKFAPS

Results are given in words; binding and its absence hold for the method and conditions named. In cells and extracts the contact can be indirect. Some binding calls cover weakened binding; strength is not graded here. Tags and fused reporters may be left off the sequences shown.

The assay concerns the target T1, human organic anion transporter 3 (OAT3), myc-tagged (human) (UniProt Q8TCC7).
T1 sequence: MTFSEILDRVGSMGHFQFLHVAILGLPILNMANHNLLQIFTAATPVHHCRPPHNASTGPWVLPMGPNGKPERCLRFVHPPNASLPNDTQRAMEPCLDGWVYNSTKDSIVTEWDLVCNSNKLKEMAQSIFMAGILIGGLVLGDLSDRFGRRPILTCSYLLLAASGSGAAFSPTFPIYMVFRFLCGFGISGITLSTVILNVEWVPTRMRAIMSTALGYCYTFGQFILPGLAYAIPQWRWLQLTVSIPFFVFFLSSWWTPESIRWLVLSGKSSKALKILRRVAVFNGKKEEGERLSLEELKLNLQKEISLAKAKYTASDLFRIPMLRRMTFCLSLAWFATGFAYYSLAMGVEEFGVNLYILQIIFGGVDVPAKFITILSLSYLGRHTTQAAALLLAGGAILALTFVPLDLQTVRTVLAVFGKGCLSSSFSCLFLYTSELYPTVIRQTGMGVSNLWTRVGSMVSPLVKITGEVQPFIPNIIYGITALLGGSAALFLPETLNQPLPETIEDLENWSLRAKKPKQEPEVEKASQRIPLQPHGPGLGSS
The assay can be described thus: co-IP; OAT3 immunoprecipitated with an anti-myc antibody on protein G resin from lysates (~1000 ug total protein, 4 °C overnight) of OAT3-expressing cells treated with or without topotecan (1 µM, 12 h); blots with anti-Ubc9 or anti-SENP2.

“SUMO-conjugating enzyme E2 (Ubc9), endogenous (from UniProt P63279 1-158)”: the binding entry is listed as “binds”.
